# Source: PubChem BioAssay AID624297 (National Center for Advancing Translational Sciences (NCATS), 2012)
# The whole screen tested about 340,000 compounds, of which about 6,200 (1.8%) were called active. The shares of active, inactive and inconclusive entries below differ from those in the screen. Calls come from the whole dose curve; as a rule, active = well fitted activation curve with a large enough effect; inconclusive = small, poorly fitted or top-dose-only effect; inactive = no such curve, though single readings can be large or run the other way. Potencies of inconclusive entries are doubtful fits and often do not repeat.
# Experiment: A quantitative high throughput screen for small molecules that induce DNA re-replication in SW480 colon adenocarcinoma cells. For re-replication activation: % of control where 0% means no effect. Note: nearly all actives have a fitted effect of over 55% in size.
# Conditions: Hoechst DNA content imaging, 48 h; re-replication activation: at 46.1 µM (top of the series) unless noted
# Procedure, shortened: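 Hoechst fluorescence of nuclei (405 nm excitation, 500-530 nm emission) measured by plate-scanning imager after 48 hr compound exposure at 37 C; re-replication scored as increased number of nuclei with elevated intensity.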
# Potency is the fitted concentration of half-maximal effect.
SMILES,Potency,re-replication activation
Fc1ccc(CNc2ccc(N3CCN(Cc4ccccc4)CC3)cc2)cc1,"inconclusive: 20.6 µM [activator, single point]",
O=C1OCCN1C(=O)[C@H]1[C@H](c2ccc(Cl)cc2)C(c2ccccc2)=NN1c1ccc(Br)cc1,active: 23.1 µM,
Cc1ccc(C(=O)ONC(=O)c2ccc(Cl)cc2)cc1[N+](=O)[O-],"inconclusive: 3.66 µM [activator, full curve, poor fit]",
COc1ccc(/C=N/NC(=O)CCSc2nc3ccccc3s2)cc1,active: 10.3 µM,
O=C1CN(C(=O)COC(=O)c2ccc(C(F)(F)F)cc2)c2ccccc2N1,,inactive: -5.17%
O=C(NCCCN1CCCC1)c1ccc2c(c1)N(Cc1ccccc1F)C(=O)c1ccccc1S2(=O)=O,"inconclusive: 29.1 µM [activator, single point]",
Cc1c(S(=O)(=O)Nc2cccc3ccccc23)c(=O)n(C)c(=O)n1C,,inactive: 12.7%
O=C(NCc1nnc(SCc2ccc(F)cc2)n1-c1ccc(F)cc1)C12CC3CC(CC(C3)C1)C2,,inactive: 0.182%
COc1ccc2c(c1)[C@H]1[C@H](CO2)[C@H](c2ccccc2)[C@]2(C)C(=O)N(CC3CCCO3)CC(=O)N12 (some centres undefined),,inactive: 0.778%
Cc1cccc(NC(=O)/C(C#N)=C/c2cccc([N+](=O)[O-])c2)n1,"inconclusive: 29.1 µM [activator, single point]",
O=[N+]([O-])/C=C\c1ccc(N2CCOCC2)cc1,active: 14.6 µM,
O=C(c1cccc(N2C(=O)C3C4C=CC(C4)C3C2=O)c1)N1CCN(c2ccccc2Cl)CC1 (centres undefined),,inactive: 27.4%
O=C(Nc1ccccc1)C1=C[C@@H](c2ccc(C(F)(F)F)cc2)C[C@@H](OCCCCO)O1,"inconclusive: 5.17 µM [activator, single point]",
COC(=O)[C@@]1(C)[C@H]2C(=O)N(C)C(=O)[C@H]2[C@H]2CN=C(SCC(=O)c3ccccc3)N21,"inconclusive: 18.4 µM [activator, partial curve, poor fit]",
Cn1c(=O)c2c(nc(SCCN3CCOCC3)n2Cc2ccccc2Cl)n(C)c1=O,,inactive: -13.7%
CSc1ccc(C#N)cc1NC(=O)c1ccc(Cl)nc1,"inconclusive: 36.6 µM [activator, partial curve, poor fit]",
CCCNC(=O)c1cc(-c2ccc(OC)cc2)n(CCCOC)c1C,,inactive: 3.31%
Cn1ccs/c1=N\C(=O)Nc1cccc(C(F)(F)F)c1,,inactive: 1.27%
CC[C@]12C(=O)N(C)C[C@H]([C@@H]3C(=O)N(C)C(=O)[C@@H]31)N2C(=O)c1ccc(Br)cc1,"inconclusive: 0.326 µM [activator, partial curve, poor fit]",

# Look-ups from the list.
# Entry of Cn1ccs/c1=N\C(=O)Nc1cccc(C(F)(F)F)c1 under re-replication activation: inactive: 1.27%
# Entry of Cc1ccc(C(=O)ONC(=O)c2ccc(Cl)cc2)cc1[N+](=O)[O-] under Potency: inconclusive: 3.66 µM [activator, full curve, poor fit]
